According to patent US20240294636A1 (YALE UNIVERSITY, published 2024):
Results are given in words; binding and its absence hold for the method and conditions named. Some binding calls cover weakened binding; strength is not graded here.

Protein sequences, listed by entry. Tags and fused reporters are not part of them. Residues count along the entry.
UniProt O08722, residues 27-945: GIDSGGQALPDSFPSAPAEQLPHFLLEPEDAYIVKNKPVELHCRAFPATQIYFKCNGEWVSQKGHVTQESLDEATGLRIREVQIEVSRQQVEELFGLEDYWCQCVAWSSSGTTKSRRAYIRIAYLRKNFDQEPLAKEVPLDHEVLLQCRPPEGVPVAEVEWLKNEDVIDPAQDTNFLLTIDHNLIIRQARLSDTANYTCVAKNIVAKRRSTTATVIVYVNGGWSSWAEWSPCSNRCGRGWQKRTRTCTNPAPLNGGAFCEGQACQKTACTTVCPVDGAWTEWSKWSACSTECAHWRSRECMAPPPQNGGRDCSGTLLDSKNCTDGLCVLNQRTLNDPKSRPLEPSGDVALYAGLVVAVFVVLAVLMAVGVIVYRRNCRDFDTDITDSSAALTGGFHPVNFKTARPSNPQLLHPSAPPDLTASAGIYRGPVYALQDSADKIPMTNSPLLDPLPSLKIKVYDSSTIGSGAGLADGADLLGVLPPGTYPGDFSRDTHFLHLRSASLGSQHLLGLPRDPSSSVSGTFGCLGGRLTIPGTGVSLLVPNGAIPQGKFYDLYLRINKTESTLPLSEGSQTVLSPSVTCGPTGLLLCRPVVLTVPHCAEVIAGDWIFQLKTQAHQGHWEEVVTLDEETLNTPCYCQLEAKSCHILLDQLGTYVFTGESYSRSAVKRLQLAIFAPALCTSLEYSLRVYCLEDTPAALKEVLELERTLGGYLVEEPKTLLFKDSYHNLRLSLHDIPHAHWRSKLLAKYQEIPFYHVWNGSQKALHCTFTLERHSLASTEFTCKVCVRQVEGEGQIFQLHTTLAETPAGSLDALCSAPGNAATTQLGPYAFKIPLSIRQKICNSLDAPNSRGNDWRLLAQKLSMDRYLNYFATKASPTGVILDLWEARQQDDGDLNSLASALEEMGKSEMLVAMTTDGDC
UniProt Q8IZJ1, residues 27-945: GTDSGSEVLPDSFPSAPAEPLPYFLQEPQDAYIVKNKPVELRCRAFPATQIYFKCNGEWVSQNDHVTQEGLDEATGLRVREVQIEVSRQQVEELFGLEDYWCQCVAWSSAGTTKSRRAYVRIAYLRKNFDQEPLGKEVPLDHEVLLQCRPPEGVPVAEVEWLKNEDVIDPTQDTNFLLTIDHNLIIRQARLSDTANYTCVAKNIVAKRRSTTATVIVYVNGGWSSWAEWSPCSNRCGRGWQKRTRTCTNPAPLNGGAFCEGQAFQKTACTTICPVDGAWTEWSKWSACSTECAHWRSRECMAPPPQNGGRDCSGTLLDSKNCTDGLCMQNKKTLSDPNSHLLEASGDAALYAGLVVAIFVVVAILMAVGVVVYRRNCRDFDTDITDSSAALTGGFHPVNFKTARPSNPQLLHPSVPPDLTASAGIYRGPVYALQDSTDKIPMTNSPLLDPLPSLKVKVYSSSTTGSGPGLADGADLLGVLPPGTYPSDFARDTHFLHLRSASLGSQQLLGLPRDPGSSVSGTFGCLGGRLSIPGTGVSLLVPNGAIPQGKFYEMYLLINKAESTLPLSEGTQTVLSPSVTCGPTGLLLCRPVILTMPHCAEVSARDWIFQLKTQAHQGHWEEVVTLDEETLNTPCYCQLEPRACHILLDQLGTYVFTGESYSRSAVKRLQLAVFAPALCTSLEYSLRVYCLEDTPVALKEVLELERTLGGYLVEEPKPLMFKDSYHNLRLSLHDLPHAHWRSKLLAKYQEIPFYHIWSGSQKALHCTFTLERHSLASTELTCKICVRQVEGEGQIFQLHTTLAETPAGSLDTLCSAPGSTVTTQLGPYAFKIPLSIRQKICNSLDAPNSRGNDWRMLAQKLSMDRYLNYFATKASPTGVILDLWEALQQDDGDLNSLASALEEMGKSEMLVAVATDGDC

Experiments:
[1] = biological target: rat Unc5B coupled to GFP (expressed in porcine aortic endothelial cells) (rat) (UniProt O08722); test: immunoprecipitation from PAECs transfected with rat Unc5B-GFP, 1 h after antibody treatment
[2] = biological target: rat Unc5B coupled to GFP (expressed in porcine aortic endothelial cells) (rat) (UniProt O08722); test: immunoprecipitation from PAEC cells transfected with rat Unc5B-GFP with the named antibody, western blot of the precipitate for UNC5B, GFP and Claudin5
[3] = biological target: human Unc5B (human) (UniProt Q8IZJ1); test: immunoprecipitation from HUVEC with the named antibody, western blot of the precipitate for Unc5B and Claudin5

binding [1] | binding [2] | binding [3] | Binder
binds | binds |  | 1095 (antibody, human IgG2, kappa, V domains shown) VH: EVQLVESGGGLVQPGGSLRLSCAASGFNISYSSIHWVRQAPGKGLEWVAYIYPYYGYTYYADSVKGRFTISADTSKNTAYLQMNSLRAEDTAVYYCARGYGIDYWGQGTLVTVSS VL: DIQMTQSPSSLSASVGDRVTITCRASQSVSSAVAWYQQKPGKAPKLLIYSASSLYSGVPSRFSGSRSGTDFTLTISSLQPEDFATYYCQQHYSLFTFGQGTKVEIKR
 |  | binds | anti-Unc5B antibody 1103 (antibody, V domains shown, also called anti-Unc5B-3) VH: EVQLVESGGGLVQPGGSLRLSCAASGFNISYYSIHWVRQAPGKGLEWVASIYSSSGYTSYADSVKGRFTISADTSKNTAYLQMNSLRAEDTAVYYCARGYGLDYWGQGTLVTVSS VL: DIQMTQSPSSLSASVGDRVTITCRASQSVSSAVAWYQQKPGKAPKLLIYSASSLYSGVPSRFSGSRSGTDFTLTISSLQPEDFATYYCQQHYSYPITFGQGTKVEIKR
 |  | binds | 1100 (antibody, V domains shown) VH: EVQLVESGGGLVQPGGSLRLSCAASGFNLYYSSIHWVRQAPGKGLEWVASIYSYSSYTSYADSVKGRFTISADTSKNTAYLQMNSLRAEDTAVYYCARGYAMDYWGQGTLVTVSS VL: DIQMTQSPSSLSASVGDRVTITCRASQSVSSAVAWYQQKPGKAPKLLIYSASSLYSGVPSRFSGSRSGTDFTLTISSLQPEDFATYYCQQHYGLITFGQGTKVEIKR
